Some entries share one result that the patent states for a list of compounds.
How the values were obtained:
[1] = test system: human colorectal adenocarcinoma derived cell line HT-29; test: Cellular assay (checkpoint abrogation); format: cell-based; settings: HT-29 cells; 20 nM SN-38, then 300 nM nocodazole plus compound for 24 h; read-out: EC50 (50% decrease of phospho-Histone H3)
[2] = target: T1, chk1 (Homo sapiens, UniProt O14757); test: Chk1 primary assays (AlphaScreen / ATP radiometric); format: biochemical; settings: assays of EXAMPLE i; 10 μM ATP, 30 minutes; AlphaScreen or ATP radiometric format not specified; read-out: IC50 against chk1
T1 construct: Full length human mutant recombinant protein, histidine tagged; histidine tag; purchased Invitrogen PV3982; host or cells: insect cells
T1 sequence (O14757 1-476): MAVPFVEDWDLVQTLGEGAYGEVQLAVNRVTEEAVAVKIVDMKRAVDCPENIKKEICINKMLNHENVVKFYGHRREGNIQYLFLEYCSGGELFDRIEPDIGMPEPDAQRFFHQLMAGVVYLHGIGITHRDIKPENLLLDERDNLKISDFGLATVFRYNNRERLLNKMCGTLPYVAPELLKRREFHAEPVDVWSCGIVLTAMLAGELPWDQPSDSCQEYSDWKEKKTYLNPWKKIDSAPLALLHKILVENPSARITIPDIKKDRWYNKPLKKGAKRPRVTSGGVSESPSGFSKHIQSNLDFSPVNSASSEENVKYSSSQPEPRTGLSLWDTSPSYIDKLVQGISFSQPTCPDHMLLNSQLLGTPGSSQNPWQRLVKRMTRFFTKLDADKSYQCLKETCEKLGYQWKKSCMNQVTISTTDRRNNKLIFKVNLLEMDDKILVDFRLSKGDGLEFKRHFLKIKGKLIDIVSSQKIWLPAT

CN1CCC(Oc2c(C#N)ncc3[nH]c4ncc(F)cc4c23)CC1 [Example 166, 3-Fluoro-5-(1-methyl-piperidin-4-yloxy)-9H-dipyrido[2,3-b;4′,3′-d]pyrrole-6-carbonitrile]
EC50 [1]: < 10 µM | IC50 [2]: < 5 µM

N#Cc1cc2c(cn1)[nH]c1nccc(N[C@@H]3CCCNC3)c12 [Example 87, 4-((R)-piperidin-3-amino)-9H-dipyrido[2,3-b;4′,3′-d]pyrrole-6-carbonitrile]
EC50 [1]: < 10 µM | IC50 [2]: < 5 µM

CN(C)C[C@H]1CN(c2ccnc3[nH]c4cnc(C#N)cc4c23)CCO1 [Example 19, (S)-4-(2-((dimethylamino)methyl)morpholino)-9H-dipyrido[2,3-b;4′,3′-d]pyrrole-6-carbonitrile]
EC50 [1]: < 10 µM | IC50 [2]: < 5 µM

CN(C)[C@@H]1CCCN(c2ccnc3[nH]c4cnc(C#N)cc4c23)C1 [Example 26]
EC50 [1]: < 10 µM | IC50 [2]: < 5 µM

N#Cc1ncc2[nH]c3ncc(F)cc3c2c1OC1CCNCC1 [Example 155, 3-Fluoro-5-(piperidin-4-yloxy)-9H-dipyrido[2,3-b;4′,3′-d]pyrrole-6-carbonitrile]
EC50 [1]: < 10 µM | IC50 [2]: < 5 µM

CCN1CCN(c2c(Cl)cnc3[nH]c4cnc(C#N)cc4c23)CC1 [Example 89, 3-Chloro-4-(1-ethylpiperazin)-9H-dipyrido[2,3-b;4′,3′-d]pyrrole-6-carbonitrile]
EC50 [1]: < 10 µM | IC50 [2]: < 5 µM

CCN[C@@H]1CCCN(c2ccnc3[nH]c4cnc(C#N)cc4c23)C1 [Example 36, (R)-4-(3-(ethylamino)piperidin-1-yl)-9H-dipyrido[2,3-b;4′,3′-d]pyrrole-6-carbonitrile]
EC50 [1]: < 10 µM | IC50 [2]: < 5 µM

N#Cc1ncc2[nH]c3ncc(Cl)cc3c2c1N1CCC(N2CCOCC2)CC1 [Example 154, 3-Chloro-5-(4-morpholin-4-yl-piperidin-1-yl)-9H-dipyrido[2,3-b;4′,3′-d]pyrrole-6-carbonitrile]
EC50 [1]: < 10 µM | IC50 [2]: < 5 µM

N#Cc1ncc2[nH]c3ncccc3c2c1OCCN1CCCC1 [Example 125, 5-(2-Pyrrolidin-1-yl-ethoxy)-9H-dipyrido[2,3-b;4′,3′-d]pyrrole-6-carbonitrile]
EC50 [1]: < 10 µM | IC50 [2]: < 5 µM

Cn1cc(-c2cc3c(cn2)[nH]c2nccc(O[C@@H]4CCCNC4)c23)cn1 [Example 94, (R)-4-(Piperidin-3-yloxy)-6-(1-methyl-1H-pyrazol-4-yl)-9H-dipyrido[2,3-b;4′,3′-d]pyrrole]
EC50 [1]: < 10 µM | IC50 [2]: < 5 µM

CCN1CCC[C@@H](Nc2ccnc3[nH]c4cnc(C#N)cc4c23)C1 [Example 104, 4-((R)-1-Ethyl-piperidin-3-ylamino)-9H-dipyrido[2,3b;4′,3′-d]pyrrole-6-carbonitrile]
EC50 [1]: < 10 µM | IC50 [2]: < 5 µM

CCN1CC(Oc2c(C#N)ncc3[nH]c4ncccc4c23)C1 [Example 165, 5-(1-Ethyl-azetidin-3-yloxy)-9H-dipyrido[2,3-b;4′,3′-d]pyrrole-6-carbonitrile]
EC50 [1]: < 10 µM | IC50 [2]: < 5 µM

N#Cc1ncc2[nH]c3ncccc3c2c1OC1CCN(CC2CC2)CC1 [Example 116, 5-(1-Cyclopropylmethyl-piperidin-4-yloxy)-9H-dipyrido[2,3-b;4′,3′-d]pyrrole-6-carbonitrile]
EC50 [1]: < 10 µM | IC50 [2]: < 5 µM

COC1(COc2ccnc3[nH]c4cnc(C#N)cc4c23)CCN(C)CC1 [Example 25, 4-((4-methoxy-1-methylpiperidin-4-yl)methoxy)-9H-dipyrido[2,3-b;4′,3′-d]pyrrole-6-carbonitrile]
EC50 [1]: < 10 µM | IC50 [2]: < 5 µM

N#Cc1ncc2[nH]c3ncc(Cl)cc3c2c1N1CCC(N2CCCC2)CC1 [Example 159, 3-Chloro-5-(4-pyrrolidin-1-yl-piperidin-1-yl)-9H-dipyrido[2,3-b;4′,3′-d]pyrrole-6-carbonitrile]
EC50 [1]: < 10 µM | IC50 [2]: < 5 µM

N#Cc1cc2c(cn1)[nH]c1nccc(N3CCC(N4CCOCC4)CC3)c12 [Example 103, 4-(4-Morpholin-4-yl-piperidin-1-yl)-9H-dipyrido[2,3b;4′,3′d]pyrrole-6-carbonitrile]
EC50 [1]: < 10 µM | IC50 [2]: < 5 µM

N#Cc1cc2c(cn1)[nH]c1nccc(O[C@H]3CNCC[C@H]3F)c12 (relative stereo) [Example 39, cis-4-(4-fluoropiperidin-3-yloxy)-9H-dipyrido[2,3-b;4′,3′-d]pyrrole-6-carbonitrile]
EC50 [1]: < 10 µM | IC50 [2]: < 5 µM

N#Cc1ncc2[nH]c3ncc(Br)cc3c2c1OC1CCN(C2COC2)CC1 [Example 149, 3-Bromo-5-(1-oxetan-3-yl-piperidin-4-yloxy)-9H-dipyrido[2,3-b;4′,3′-d]pyrrole-6-carbonitrile]
EC50 [1]: < 10 µM | IC50 [2]: < 5 µM

N#Cc1ncc2[nH]c3ncc(Br)cc3c2c1NC1CCNCC1 [Example 147, 3-Bromo-5-(piperidin-4-ylamino)-9H-dipyrido[2,3-b;4′,3′-d]pyrrole-6-carbonitrile]
EC50 [1]: < 10 µM | IC50 [2]: < 5 µM

CC1(COc2ccnc3[nH]c4cnc(C#N)cc4c23)CCN(CCO)CC1 [Example 63, 4-((1-(2-hydroxyethyl)-4-methylpiperidin-4-yl)methoxy)-9H-dipyrido[2,3-b;4′,3′-d]pyrrole-6-carbonitrile]
EC50 [1]: < 10 µM | IC50 [2]: < 5 µM

CCN[C@H]1CCN(c2ccnc3[nH]c4cnc(C#N)cc4c23)C1 [Example 79, (S)-4-(N-ethylpyrrolidin-3-amino)-9H-dipyrido[2,3-b;4′,3′-d]pyrrole-6-carbonitrile]
EC50 [1]: < 10 µM | IC50 [2]: < 5 µM

CN1CCC(Nc2c(C#N)ncc3[nH]c4ncccc4c23)CC1 [Example 169, 5-(1-Methyl-piperidin-4-ylamino)-9H-dipyrido[2,3-b;4′,3′-d]pyrrole-6-carbonitrile]
EC50 [1]: < 10 µM | IC50 [2]: < 5 µM

N#Cc1ncc2[nH]c3ncccc3c2c1OCC1CCNC1 (centres unmarked) [Example 110, 5-(Pyrrolidin-3-ylmethoxy)-9H-dipyrido[2,3-b;4′,3′-d]pyrrole-6-carbonitrile]
EC50 [1]: < 10 µM | IC50 [2]: < 5 µM

N#Cc1cc2c(cn1)[nH]c1nccc(N3CC[C@@H](O)C3)c12 [Example 106, 4-((R)-3-Hydroxypyrrolidin-1-yl)-9H-dipyrido[2,3b;4′,3′-d]pyrrole-6-carbonitrile]
EC50 [1]: < 10 µM | IC50 [2]: < 5 µM

CN1CCNC[C@@H]1COc1ccnc2[nH]c3cnc(C#N)cc3c12 [Example 7, (R)-4-((1-methylpiperazin-2-yl)methoxy)-9H-dipyrido[2,3-b;4′,3′-d]pyrrole-6-carbonitrile]
EC50 [1]: < 10 µM | IC50 [2]: < 5 µM

N#Cc1cc2c(cn1)[nH]c1nccc(OC[C@H]3CNCCO3)c12 [Example 3, (R)-4-(morpholin-2-ylmethoxy)-9H-dipyrido[2,3-b;4′,3′-d]pyrrole-6-carbonitrile]
EC50 [1]: < 10 µM | IC50 [2]: < 5 µM

N#Cc1cc2c(cn1)[nH]c1nccc(O[C@H]3CNCC[C@@H]3F)c12 (relative stereo) [Example 17, trans-4-(4-fluoropiperidin-3-yloxy)-9H-dipyrido[2,3-b;4′,3′-d]pyrrole-6-carbonitrile]
EC50 [1]: < 10 µM | IC50 [2]: < 5 µM

CCN1CCC[C@H](Oc2c(C#N)ncc3[nH]c4ncccc4c23)C1 [Example 114, 5-((S)-1-Ethyl-piperidin-3-yloxy)-9H-dipyrido[2,3-b;4′,3′-d]pyrrole-6-carbonitrile]
EC50 [1]: < 10 µM | IC50 [2]: < 5 µM

From patent publication US9440976B2, “1,7-diazacarbazoles and methods of use” (Genentech, Inc., priority 2009, dated 2016)
